## Results of single-concentration screens

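Whole-parasite assay of Trypanosoma brucei over 72 hours; the read-out is not stated. Compounds at 30 µM. Direction is inferred from retests: higher values go with stronger inhibition. Values scatter widely below zero; nearly all retest evidence comes from the higher of the two concentrations used. Of about 64,000 compounds tested this way, about 940 (1.5%) reached 50% or more in at least one test.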

Results are given as percent effect. The record does not define 0% and 100%; most values in the screen are far below 50% and negative numbers occur (in some assays of this library far below -100). This is an unselected part of the compounds tested.

Fc1ccc(OC2CCN(CCn3cncn3)CC2)cc1 read -32.95%. For Cc1cccc(CNC(=O)Nc2ccn(CCN(C)C)n2)c1 the result was -5.371%. Result for CCC1CN(CC(=O)NCC(C)C)CCO1 (centres unmarked) was -3.667%. CC(C)(NS(C)(=O)=O)c1nc(-c2cccc(Cl)c2)no1 gave -44.44%.

O=C(O)C(F)(F)F.O=C(c1cnoc1)N1CCC[C@]2(C[C@H](Oc3ncccc3F)CO2)C1 read 5.938%. With Cc1nc(CN(C)C2CCN(CCCOc3ccccc3)C2)no1 (centres unmarked) the screen gave -4.955%. CN(C)C(=O)NCc1nnn2c1CN(CC1CCOCC1)CCC2.O=C(O)C(F)(F)F gave -88.1%. CN(C)[C@H]1CCCCN(Cc2cnc(NCc3ccccc3)nc2)C1 gave -15.33%.

CN(C)C(=O)c1nc(CN2CC(c3ccccc3)CC2=O)no1 (centres unmarked) gave -51.63%. For COCc1cncc2c1CCN(C(=O)c1ccc(C#N)cc1)C2.O=C(O)C(F)(F)F the result was -72.66%. For CCOc1ncccc1NC(=O)c1cc2c(s1)CCC2 the result was 0.7443%. Result for COc1ccc(NC(=O)Cn2nc(C)c(C)cc2=O)cc1 was -33.88%.

Cn1ccnc1CNC(=O)Nc1ccc(OC2CCC2)c(F)c1 gave -60.76%. Result for Cc1cc(C)c2c(N(C)CC3CCN(CC(C)C)C3)ncnc2n1 (centres unmarked) was 13.96%. With CN(CCSc1ccccc1)C(=O)C(c1cccnc1)N1CCOCC1 (centres unmarked) the screen gave -16.99%. For CCc1cccc(OCCN(C)C(=O)c2ccccc2NCC(=O)O)c1 the result was 8.726%.

N#Cc1ccc(SCCOCCO)c(F)c1 read 0.08564%. Result for Cc1cnc(C(=O)N2Cc3ccccc3OC3(CCOCC3)C2)cn1 was -62.79%. With CNC(=O)[C@@H]1C[C@H](N)CN1S(=O)(=O)c1cc(Cl)cc(Cl)c1O the screen gave 4.389%. For COc1ccc(Cc2ncc3c(n2)CN(C(=O)C2COCCO2)C3)cc1 (centres unmarked) the result was 11.49%.

With CC(C)CN(CC(O)c1ccc(F)cc1)C(=O)c1cc[nH]n1 (centres unmarked) the screen gave -15.54%. [H][C@@]12COC[C@]1(CNS(C)(=O)=O)CN(C(=O)CC1CCCC1)C2 read -43.41%. CCn1c(C)nnc1SCCNc1cc(OC)ncn1 gave -1.043%. For COc1ccccc1C1(CNc2ccc(C(=O)N(C)C)cn2)CC1 the result was -17.01%.

For Cc1cnn(C2CN(CC(=O)N(C)Cc3cccs3)C2)c1 the result was 43.98%. Cc1nc(-c2ccccc2)n(CC(=O)NCC(C)C)n1 gave -24.08%. Result for Cc1[nH]c(=O)[nH]c(=O)c1CN1CCCC(CCc2ccccc2)C1 (centres unmarked) was -10.78%. Cc1cnc(NC2CCc3c(ccc(=O)n3CC3CC3)C2)nc1 (centres unmarked) gave -11.94%.

With CC(=O)N(CCc1nc(-c2cc(C(N)=O)oc2C)cs1)C(C)C the screen gave -19%. [H][C@@]12CC(=O)/C(=C(\C)NC(=O)c3cccs3)[C@]1([H])C2(C)C read -42.1%. For CN(Cc1cccc(C(N)=O)c1)c1ncc(C#N)cc1Cl the result was 5.105%. Cc1ccc(C(=O)NCCNc2ncccc2C#N)c(=O)[nH]1 gave -10.69%.

O=C(c1ccc2[nH]nnc2c1)N1CCCC(n2cccn2)C1 (centres unmarked) read 18.72%. O=C(NCCC(O)c1cccs1)c1ccco1 (centres unmarked) gave 8.389%. For Cc1ccc(C(=O)N2CCC(c3nccn3C(C)C)CC2)c(=O)[nH]1 the result was -11.25%. Cn1ccnc1C(=O)N1CCC2(CCN2Cc2ccc(F)cc2)C1.O=C(O)C(F)(F)F (centres unmarked) gave 3.082%.

CCn1cnnc1CNC(=O)NC(c1cccs1)C1CCCC1 (centres unmarked) gave -28.04%. For O=C(CCc1ccc(Cl)cc1)N[C@@H]1CC[C@@H](O)[C@@H]1O the result was -21.3%.

Some entries from above, unchanged:

compound,Percent Effect
COc1ccc(Cc2ncc3c(n2)CN(C(=O)C2COCCO2)C3)cc1 (centres unmarked),11.49
[H][C@@]12COC[C@]1(CNS(C)(=O)=O)CN(C(=O)CC1CCCC1)C2,-43.41
Fc1ccc(OC2CCN(CCn3cncn3)CC2)cc1,-32.95

Source: ChEMBL document CHEMBL3988442, “University of Dundee, Small-Polar-MMV Screening Library” (2021).